Results as given in patent US7528133B1, “Use of thiazolidinediones derivatives for preventing uterine contractions in premature labour or lactation” (The Board of Regents of The University of Texas System, priority 1998, dated 2009).
“Also recorded” adds a separate entry of the source. For at least one compound, name, drawing or mass did not settle the structure.

Key:
Assay type in all cases: cell-based
[1] = tested on: oxytocin receptor (OTR) in human term myometrial cells; assay: Oxytocin-induced intracellular calcium transients in human term myometrial cells (Fura-2, single cells); settings: for effect on oxytocin-stimulated calcium transients: 10 nM oxytocin; for effect on oxytocin-induced calcium transients: 100 nM oxytocin
Procedure: FIGS. 3A-H. Change in intracellular cytoplasmic calcium levels in human term myometrial cells in culture. Each line represents the change in calcium for a single cell. Cells were either pretreated with troglitazone for one minute and then treated with oxytocin, bombesin (BBS), or bradykinin. These three agents cause an increase in intracellular calcium and cause uterine contraction under the correct circumstance. Cells were grown in 10% FBS, DMEM, penicillin/streptomycin resulting in elevated OTR levels. Cells were then put into KRH buffer containing Fura-2. The cells take up Fura-2 allowing for detection in changes of cytoplasmic levels of calcium. Cells were then treated as described for each figure. […] There is no effect of troglitazone at this concentration upon oxytocin-stimulated calcium transients.
Cell Culture Conditions: The proper protocols were followed in obtaining human term myometrium tissue from mother's delivering via C-section. Human term pregnant myometrial cells were isolated by collagenase dispersion and were grown in media consisting of Delbecco's modified eagles media (DMEM) supplemented with 10% fetal bovine serum (FBS), and 2% penicillin/streptomycin in a humidified tissue culture incubator at 37° C. under an atmosphere of 5% CO2 and 95% air.
Intracellular calcium levels: Real-time recording of [Ca^2+]i was performed in single cells using methods and design previously described (Copland et al., 1999). The sensitivity of the assay was 2.5 pg/ml with an intraassay coefficient of variation of 6.3% and the interassay coefficient of variation of 6.9%.

[2] = tested on: bombesin-induced calcium transients in human myometrial cells; assay: Bombesin-induced intracellular calcium transients in human term myometrial cells; settings: 0.1 μg/ml (226 nM) troglitazone, 100 nM bombesin; FIG. 3D
[3] = tested on: bradykinin-induced calcium transients in human myometrial cells; assay: Bradykinin-induced intracellular calcium transients in human term myometrial cells; settings: 100 nM bradykinin
[4] = tested on: term human myometrial tissue; assay: Oxytocin-stimulated contractions of term human myometrial tissue strips from C-sections; settings: FIG. 4B
[5] = tested on: primary human myometrial cells; assay: Oxytocin-induced prostaglandin E2 release in primary human myometrial cells (PGE2 EIA); settings: 5 μg/ml troglitazone added minutes prior to oxytocin; 20 hours; FIG. 2
[6] = 1 μg/ml (2.2 micromolar) troglitazone, FIG. 3G

Cc1c(C)c2c(c(C)c1O)CCC(C)(COc1ccc(CC3SC(=O)NC3=O)cc1)O2 (racemic) [troglitazone, ±5-[[4-[(3,4-dihydro-6-hydroxy-2,5,7,8-tetramethyl-2H-1-benzopyran-2-yl)methoxy]phenyl]methyl]-2,4-thiazolidinedione]
effect on oxytocin-stimulated calcium transients ([1]; 0.01 μg/ml (22.6 nM) troglitazone, FIG. 3C): partially inhibits; also recorded: partially blocks | effect on oxytocin-stimulated calcium transients ([1]; 0.1 μg/ml (226 nM) troglitazone, FIG. 3D): completely inhibits; also recorded: completely blocks | effect on oxytocin-induced calcium transients ([1]; 226 nM troglitazone, FIG. 3F): does not block | effect on oxytocin-induced calcium transients [1, 6]: is inhibited; also recorded: specifically blocks | effect on oxytocin dose response of intracellular calcium ([1]; 0.1 or 1 μM troglitazone, oxytocin 10^-11-10^-6 M, FIG. 3H): dose dependent inhibition; also recorded: dose-dependent inhibition | type of inhibition of oxytocin ([1]; calcium equal to OT alone at high oxytocin levels, FIG. 3H): competitive inhibitor | effect on bombesin-induced calcium transients [2]: causes an increase in intracellular calcium levels; also recorded: does not block | effect on bradykinin-induced calcium transients ([3]; 226 nM troglitazone, FIG. 3F): does not block | effect on bradykinin-induced calcium transients [3, 6]: is not inhibited; also recorded: not bradykinin-induced | reversibility of troglitazone inhibition of contractions ([4]; 100 nM oxytocin introduced after 5 minutes): reversibility; also recorded: reversible | effect on oxytocin induced contractions ([4]; 10 μg/ml (22.6 micromolar) troglitazone, one minute pretreatment, 10 nM oxytocin): inhibited; also recorded: blocks | block of PGE2 release by oxytocin [5]: complete block
